Reference: the supplement of paper PMC10735217
Where a name gives a salt, the structure may show the parent alone. The list shows a part of the results. Repeats in this data set agree poorly, so a single value says little.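 Human kidney-derived cells stably carry a construct in which eight TEAD-binding elements drive luciferase, measured by luminescence in a drug-repurposing library screen. A hit is any compound whose signal exceeds the plate mean by more than five robust Z scores.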

Tested on: HEK293A TEAD-LUC reporter
Assay: TEAD-luciferase reporter activity (YAP activation), robust Z score vs plate; higher = stronger YAP/TEAD activation
Conditions: 24 h

Structure (SMILES) | TEAD-luciferase reporter activity (compound concentration: 200 nM) | TEAD-luciferase reporter activity (compound concentration: 2 uM) | TEAD-luciferase reporter activity (compound concentration: 10 uM)
CCc1cc(O)c(Oc2ccc(C(N)=O)cc2F)cc1F | inactive: 1.15 | inactive: -1.42 | inactive: -0.415
c1ccc2[nH]c(-c3nc4ccccc4[nH]3)nc2c1 | inactive: 3.17 | active: 5.78 | inactive: 4.03
Cc1cccc(C)c1NC(=O)CN1CCCC1 | inactive: -0.194 | inactive: 3.65 | inactive: 2.75
COc1cc(N)c(Cl)cc1C(=O)NC1CCN(Cc2ccc(F)cc2)CC1 | inactive: -1.82 | inactive: -0.438 | inactive: 2.21
CON(C)C(=O)N1N=C(c2cc(F)ccc2F)S[C@@]1(CCCN)c1ccccc1 [Filanesib] | inactive: -0.0761 | inactive: -1.78 | inactive: -2.27
O=C(O)CC(NC(=O)[C@@H]1CCCN(C(=O)CCC2CCNCC2)C1)c1cccnc1 (stereo partly drawn) | inactive: -0.575 | inactive: 0.68 | inactive: -1.12
CC(=O)Nc1nc2c(Oc3cc(-c4ccc(C(F)(F)F)cc4)ncn3)cccc2s1 | inactive: -1.28 | inactive: 0.0384 | inactive: -1.01
CN(C)CC/C=C1\c2ccccc2CN(C)c2ccccc21 | inactive: 0.258 | inactive: -0.473 | inactive: -1.32
OB1OB2OB(O)OB(O1)O2 | inactive: 0.0833 | inactive: -0.204 | inactive: 0.223
CCOC1O[C@H]([C@@H](COCc2ccccc2)OCc2ccccc2)[C@H](OCc2ccccc2)[C@H]1O (stereo partly drawn) | inactive: -1.21 | inactive: -1.54 | inactive: 1.44
C=C1CCN([C@H](C)[C@](O)(Cn2cncn2)c2ccc(F)cc2F)CC1 [Efinaconazole] | inactive: -0.795 | inactive: 1.6 | inactive: -1.43
Nc1ncccc1OCc1ccccc1 | inactive: -1.27 | inactive: 1.31 | inactive: -0.587
N=C(N)c1ccc2cc(OC(=O)c3ccc(CNC(=O)CCCC(=O)O)o3)ccc2c1 | inactive: -0.879 | inactive: -1.37 | inactive: 2.69
O=C(c1c(F)ccc(NS(=O)(=O)N2CC[C@@H](F)C2)c1F)c1c[nH]c2ncc(-c3cnc(C4CC4)nc3)cc12 | inactive: -0.308 | inactive: 1.23 | inactive: -2.05
CCC(=O)N1Cc2ccccc2CC2(CCCCN2CC)C1 (stereo not drawn) | inactive: 1.37 | – | inactive: -1.19
O=C(CC1CCN(CC2CC2)CC1)c1ccc(F)cc1 | inactive: -0.658 | inactive: -1.53 | inactive: -1.46
CCOc1cc(-c2nccc3cc(OC)c(OC)cc23)cc(OCC)c1OCC | inactive: -1.22 | inactive: -2 | inactive: -2.42
CC[C@H](C)[C@@H]1NC(=O)[C@H](Cc2ccc(OC)cc2)NC(=O)CCCSC[C@@H](C(=O)N2CCC[C@H]2C(=O)N[C@@H](CC(C)C)C(=O)NCC(N)=O)NC(=O)[C@H](CC(N)=O)NC(=O)[C@H](CCC(N)=O)NC1=O [Carbetocin] | inactive: -1.36 | inactive: -0.452 | inactive: 1.33
CC(C)OC(=O)CCC/C=C\C[C@@H]1[C@@H](/C=C/C(F)(F)COc2ccccc2)[C@H](O)C[C@@H]1O [Tafluprost] | inactive: -1.08 | inactive: -0.0471 | inactive: -1.14
CCCN1CCC[C@@H](c2cccc(S(C)(=O)=O)c2)C1 | inactive: -0.388 | inactive: -0.234 | inactive: 1.09
CN(C)CCCC(=O)N1CCC2(CC1)CC(NC(=O)N(C)C)c1ccccc1O2 (stereo not drawn) | inactive: -0.973 | – | inactive: 0.941
CN(C)CCNC(=O)NC[C@H]1CC[C@@H]2[C@H](O1)c1cc(C(F)(F)F)ccc1N[C@H]2c1ccccc1 | inactive: -2.21 | inactive: 3.28 | inactive: 1.29
CC1=C(C)C(=O)C(C(CCCCCC(=O)O)c2ccccc2)=C(C)C1=O (stereo not drawn) [seratrodast] | inactive: -0.224 | inactive: -1.3 | inactive: -0.376
CCc1cc2c(cc1N1CCC(N3CCOCC3)CC1)C(C)(C)c1[nH]c3cc(C#N)ccc3c1C2=O [Alectinib hydrochloride] | inactive: -1.3 | inactive: -0.257 | inactive: 1.72
COc1ccc(C(=O)CC(C)=O)c(OC)c1 | inactive: -1.34 | inactive: -2.47 | inactive: 3.39

2 compounds from above, reduced to TEAD-luciferase reporter activity (compound concentration: 200 nM):
Structure (SMILES)	TEAD-luciferase reporter activity (compound concentration: 200 nM)
CCOC1O[C@H]([C@@H](COCc2ccccc2)OCc2ccccc2)[C@H](OCc2ccccc2)[C@H]1O (stereo partly drawn)	inactive: -1.21
C=C1CCN([C@H](C)[C@](O)(Cn2cncn2)c2ccc(F)cc2F)CC1 [Efinaconazole]	inactive: -0.795
